# The other results are listed elsewhere or left out. The main result of the screen is listed elsewhere. These columns were measured beside it and carry no call. Most of these compounds were active or inconclusive in the main read-out, so they are no random draw. The note in brackets gives the kind of curve behind each potency; many fits are weak.
# Experiment: qHTS Assay for Lipid Storage Modulators in Drosophila S3 Cells;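 for cell number change: cells counted by Cell Tracker Red CMTPX staining in the red channel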
# Conditions: BODIPY lipid droplet fluorescence, 18-24 h; for cell number change: measured here: cell count max response, cells fed with added oleic acid
# Summary of the method: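 Laser-scanning cytometry quantifies lipid droplet accumulation (500–530 nm total intensity; droplet/cell object ratio) in oleic acid-fed (400 uM added) Drosophila S3 cells treated with a concentration series. 20 uM Triacsin C defined 100% inhibition.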
# [1] = measured here: cell number channel AC50, cells fed with added oleic acid
# [2] = measured here: lipid fluorescence (Fed channel) AC50, cells fed with added oleic acid
Structure (SMILES),cell number change [%],AC50 [1],AC50 [2]
O=C(NCC(c1ccco1)N1CCc2ccccc2C1)c1cccc([N+](=O)[O-])c1 (stereo not drawn),33,"9.2 µM [rising, partial curve]","13 µM [rising, partial curve]"
O=C(CN1C(=O)c2ccccc2C1=O)NCc1ccccn1,-6.18,–,"0.00461 µM [falling, full curve, poor fit]"
C=CCOC(=O)C1=C(C)NC(C)=C(C(=O)OCC=C)C1c1ccc(O)cc1,-24.5,–,"29.1 µM [falling, single point]"
C[C@@H](CN=[N+]=[N-])CN1CC[C@H](NC(=O)OCc2ccccc2)CCC1=O,2.1,–,"16.4 µM [falling, single point]"
CC(C)OC(=O)C[N+](C)(C)CCN1C(=O)C2C(c3ccccc3)C=CC(c3ccccc3)C2C1=O (stereo not drawn),23.9,–,"0.461 µM [falling, single point]"
CCCCOc1ccc(C(=O)N(CC)CC(=O)NCc2cccs2)cc1,27.6,–,"10.3 µM [rising, partial curve]"
Cc1cc(Cl)ccc1OCC(=O)OCC(=O)N1CCC(C(N)=O)CC1,-67.3,"29.1 µM [falling, single point]","3.26 µM [falling, single point]"
COCc1cccc(C(=O)NC(c2ccccc2)c2ccccc2)c1,-9.52,–,–
O=C(N/N=C/c1ccc(Cl)c([N+](=O)[O-])c1)C1CC1,10.9,–,–
O=C(N/N=C/c1ccc(N2CCOCC2)cc1)c1cccs1,–,"6.51 µM [rising, single point]","6.51 µM [rising, partial curve, poor fit]"
COc1ccc(CCN(C)C(=O)c2ccc(S(=O)(=O)Nc3ccccc3C)cc2)cc1OC,32.4,"1.84 µM [rising, full curve, poor fit]",–
O=C(O)C1CC(=O)N(Cc2cccnc2)C1 (stereo not drawn),-0.561,–,"0.0058 µM [falling, full curve, poor fit]"
COc1ccc(C[C@H]2CN3C(=NC[C@@H]3Cc3ccccc3)N2C[C@H](C)NC(=O)CCC2CCCCC2)cc1,-38.8,"18.4 µM [falling, partial curve]","18.4 µM [falling, single point]"
Cc1cccc(C(=O)N/N=C/c2cc(Br)c(Br)o2)c1,-2.76,–,"6.51 µM [falling, single point]"
CCOC(=O)Cc1ccc(NC(=O)c2ccc(C(C)(C)C)cc2)cc1,-14.5,–,"6.51 µM [rising, single point]"
CCOc1ccc(N2CC(C(=O)Nc3ccccc3N3CCOCC3)CC2=O)cc1 (stereo not drawn),115,"10.3 µM [rising, partial curve]","6.51 µM [rising, partial curve]"
Cc1cc(C)c2c(c1)OC(O)(C(F)F)CC2=O (stereo not drawn),1.97,–,–
COC(=O)c1ccc(C(=O)N2CCCC(Nc3ccc(F)c(F)c3)C2)cc1 (stereo not drawn),18.8,–,"29.1 µM [rising, single point]"
CCCCc1ccc(NC(=S)NCc2cccs2)cc1,-15.6,–,"6.51 µM [rising, single point]"
CCCCOC(=O)Sc1nc2ccccc2o1,12.6,–,"0.58 µM [rising, partial curve]"

Structure (SMILES),cell number change [%],AC50 [1],AC50 [2]
Clc1ncn(C23CC4CC(CC(C4)C2)C3)n1,-1.37,–,–
CCCN1CCN(CCCNC(=O)c2ccc(CS(=O)c3ccc(OC)cc3)o2)CC1 (stereo not drawn),–,–,"6.51 µM [falling, single point]"
CCOc1ccccc1NC(=O)COC(=O)C(CC)c1ccccc1 (stereo not drawn),–,"0.103 µM [falling, single point]","0.13 µM [falling, partial curve, poor fit]"
C=CCOc1ccc(C2N3CC4(C)CN2CC(CCC)(C3)C4=O)cc1 (stereo not drawn),-21.5,–,"16.4 µM [falling, single point]"
CCCCNC(=O)Nc1cnn(CC)c1C(N)=O,-87,"20.6 µM [falling, partial curve]","23.1 µM [falling, partial curve]"
COc1ccc(S(=O)(=O)N2CCOCC2)cc1NC(=O)CC1CCCC1,-13.5,–,"29.1 µM [rising, single point]"
O=C(COc1ccccc1)Nc1ccc(S(=O)(=O)N2CCCC2)cc1,–,"0.164 µM [rising, full curve, poor fit]","0.0517 µM [falling, full curve, poor fit]"
N#CCN(N=Nc1ccccc1)c1ccccc1,-27.8,–,"32.6 µM [falling, single point]"
Cc1nn(C)c(C)c1S(=O)(=O)N(CC(=O)NCCCN1CC(C)CC(C)C1)c1ccc(C(C)C)cc1 (stereo not drawn),-9.25,–,"29.1 µM [falling, single point]"
CCCn1c(NC(=O)C2CCN(C(=O)c3ccc(F)cc3)CC2)nc2ccccc21,5.87,"6.51 µM [rising, single point]","18.4 µM [falling, single point]"
CCc1nc(C)ccc1OCC(=O)O,1.04,"0.164 µM [falling, full curve, poor fit]",–
CN(CCC#N)C(=O)COC(=O)/C=C/c1cccs1,–,–,"16.4 µM [rising, single point]"
COc1ccccc1CC(=O)O/N=C(\N)Cc1cccc2ccccc12,-89.1,"29.1 µM [falling, single point]","29.1 µM [rising, partial curve]"
CC(=O)Nc1cccc(OCc2ccc(F)cc2)c1,57.6,"32.6 µM [rising, single point]","29.1 µM [rising, single point]"
Cc1ccccc1NC(=O)CSc1nnc(-c2ccco2)c(-c2ccco2)n1,-12.7,–,"0.82 µM [rising, single point]"
COc1ccc(CCNCC(O)COc2cccc(Br)c2)cc1 (stereo not drawn),-27.3,–,"5.8 µM [falling, partial curve]"
Cn1c(S(=O)(=O)Cc2ccc(Cl)cc2)nc2ccccc21,21.1,–,"0.146 µM [rising, partial curve, poor fit]"
O=C(c1ccccc1)N1CCn2c(nc3ccccc32)C1,-11.3,–,–
c1csc(CNc2ccc3c(c2)OCCO3)c1,30.6,"9.2 µM [rising, partial curve]",–
COc1ccccc1C(=O)NCCNc1ccc([N+](=O)[O-])cc1Cl,-27.5,–,–

# Arranged by number of heavy atoms (largest number first): some entries from above.
Structure (SMILES),cell number change [%],AC50 [1],AC50 [2]
COc1ccc(CCN(C)C(=O)c2ccc(S(=O)(=O)Nc3ccccc3C)cc2)cc1OC,32.4,"1.84 µM [rising, full curve, poor fit]",–
O=C(NCC(c1ccco1)N1CCc2ccccc2C1)c1cccc([N+](=O)[O-])c1 (stereo not drawn),33,"9.2 µM [rising, partial curve]","13 µM [rising, partial curve]"
Cc1cc(Cl)ccc1OCC(=O)OCC(=O)N1CCC(C(N)=O)CC1,-67.3,"29.1 µM [falling, single point]","3.26 µM [falling, single point]"

# (list continues)

Structure (SMILES),cell number change [%],AC50 [1],AC50 [2]
O=C(c1cn(-c2ccccc2)nc1-c1ccc(Cl)cc1)N1CCOCC1,29.2,–,"1.84 µM [rising, partial curve]"
COc1cc(OC)c(NC(=O)CCNS(=O)(=O)c2ccc3c(c2)oc(=O)n3C)cc1Cl,-0.652,–,–
CCOC(=O)c1c(Cc2cccc(Cl)c2)c[nH]c1C,-50.7,"16.4 µM [falling, partial curve]","18.4 µM [falling, partial curve]"
O=C(N/N=C/C=C\c1ccccc1[N+](=O)[O-])c1cc(-c2ccc3ccccc3c2)n[nH]1,-64.7,"7.31 µM [falling, partial curve]","7.31 µM [falling, partial curve]"
COc1ccc2c(c1)c(-c1csc(N)n1)c(C)n2C,-28.8,–,"14.6 µM [falling, partial curve]"
COc1cc(C2=NOC(C(=O)N3CCCCCC3)C2)cc(OC)c1OC (stereo not drawn),12.2,–,"32.6 µM [rising, single point]"
Cc1cc(C)cc(OCCn2ccnc2)c1,-12.7,–,"4.61 µM [falling, partial curve]"
COc1ccc(NC(=O)Cn2cc(C(C)=O)c3ccccc32)cc1,0.73,–,"6.51 µM [falling, partial curve, poor fit]"
O=C(c1ccccc1)C1CCN(C(=O)C2CCC(=O)N(Cc3cccc(F)c3)C2)CC1 (stereo not drawn),-15.3,–,"29.1 µM [falling, single point]"
CCOC(=O)C1(Cc2cccc(Cl)c2)CCCN(C(=O)c2occc2C)C1 (stereo not drawn),-14.7,"0.0116 µM [falling, full curve, poor fit]",–
COc1ccc(C(=O)O)cc1S(=O)(=O)NCc1cccnc1,-52.3,"0.146 µM [falling, full curve]",–
O=C(Nc1cccc2ccccc12)N1CC=C(c2ccccc2)CC1,16.7,–,–
COC(=O)C(C(=O)OC)c1ncc(C(F)(F)F)cc1Cl,-44.8,"7.31 µM [falling, partial curve, poor fit]","0.13 µM [falling, full curve, poor fit]"
COc1ccccc1CC(=O)Nc1nc(-c2ccc(F)c(F)c2)cs1,33.6,–,–
COc1ccc(NC(=O)CN(C)C(=O)c2ccc3c(c2)S(=O)(=O)N=C2CCCCCN23)cc1,0.54,–,"0.651 µM [falling, full curve, poor fit]"
O=C(COC(=O)c1ccccn1)NC(=O)c1ccccc1,0.55,–,"3.66 µM [falling, single point]"
CC(C)c1ccc2[nH]c3nc(SCC(=O)NC4CC4)nnc3c2c1,–,–,"0.0103 µM [falling, full curve]"
CCN(CC)C(=O)C1CCCN(Cc2cccc(Oc3ccccc3)c2)C1 (stereo not drawn),-13.1,–,–
O=C1C(NS(=O)(=O)c2ccc(Cl)cc2)=C(N2CCCCC2)C(=O)c2ccccc21,-58.8,"14.6 µM [falling, single point]","11.6 µM [falling, partial curve]"
O=C(CNC(=O)c1ccccc1Br)N/N=C/c1ccc(O)cc1,4.56,–,–
